From the supplement of paper PMC7666118
The other results are listed elsewhere or left out.

Sequences of proteins named here, by UniProt entry; tags and fusion partners are left off. A change or cut given only in a name is not applied to a line headed by its entry.
UniProt Q969V3: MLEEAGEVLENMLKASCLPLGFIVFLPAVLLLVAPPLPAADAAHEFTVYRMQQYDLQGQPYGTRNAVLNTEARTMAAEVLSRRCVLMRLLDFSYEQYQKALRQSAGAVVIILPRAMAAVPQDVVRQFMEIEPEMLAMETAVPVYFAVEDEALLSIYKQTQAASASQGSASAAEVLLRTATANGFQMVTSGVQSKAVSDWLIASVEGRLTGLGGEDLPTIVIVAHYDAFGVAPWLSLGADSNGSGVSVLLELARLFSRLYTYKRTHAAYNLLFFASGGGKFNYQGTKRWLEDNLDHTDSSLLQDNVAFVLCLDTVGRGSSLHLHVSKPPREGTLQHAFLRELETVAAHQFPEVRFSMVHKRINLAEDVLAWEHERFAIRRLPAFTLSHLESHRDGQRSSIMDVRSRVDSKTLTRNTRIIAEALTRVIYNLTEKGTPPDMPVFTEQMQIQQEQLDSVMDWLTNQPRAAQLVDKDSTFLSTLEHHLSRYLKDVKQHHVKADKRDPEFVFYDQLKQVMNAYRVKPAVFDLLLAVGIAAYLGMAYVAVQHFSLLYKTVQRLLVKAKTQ
UniProt Q12968: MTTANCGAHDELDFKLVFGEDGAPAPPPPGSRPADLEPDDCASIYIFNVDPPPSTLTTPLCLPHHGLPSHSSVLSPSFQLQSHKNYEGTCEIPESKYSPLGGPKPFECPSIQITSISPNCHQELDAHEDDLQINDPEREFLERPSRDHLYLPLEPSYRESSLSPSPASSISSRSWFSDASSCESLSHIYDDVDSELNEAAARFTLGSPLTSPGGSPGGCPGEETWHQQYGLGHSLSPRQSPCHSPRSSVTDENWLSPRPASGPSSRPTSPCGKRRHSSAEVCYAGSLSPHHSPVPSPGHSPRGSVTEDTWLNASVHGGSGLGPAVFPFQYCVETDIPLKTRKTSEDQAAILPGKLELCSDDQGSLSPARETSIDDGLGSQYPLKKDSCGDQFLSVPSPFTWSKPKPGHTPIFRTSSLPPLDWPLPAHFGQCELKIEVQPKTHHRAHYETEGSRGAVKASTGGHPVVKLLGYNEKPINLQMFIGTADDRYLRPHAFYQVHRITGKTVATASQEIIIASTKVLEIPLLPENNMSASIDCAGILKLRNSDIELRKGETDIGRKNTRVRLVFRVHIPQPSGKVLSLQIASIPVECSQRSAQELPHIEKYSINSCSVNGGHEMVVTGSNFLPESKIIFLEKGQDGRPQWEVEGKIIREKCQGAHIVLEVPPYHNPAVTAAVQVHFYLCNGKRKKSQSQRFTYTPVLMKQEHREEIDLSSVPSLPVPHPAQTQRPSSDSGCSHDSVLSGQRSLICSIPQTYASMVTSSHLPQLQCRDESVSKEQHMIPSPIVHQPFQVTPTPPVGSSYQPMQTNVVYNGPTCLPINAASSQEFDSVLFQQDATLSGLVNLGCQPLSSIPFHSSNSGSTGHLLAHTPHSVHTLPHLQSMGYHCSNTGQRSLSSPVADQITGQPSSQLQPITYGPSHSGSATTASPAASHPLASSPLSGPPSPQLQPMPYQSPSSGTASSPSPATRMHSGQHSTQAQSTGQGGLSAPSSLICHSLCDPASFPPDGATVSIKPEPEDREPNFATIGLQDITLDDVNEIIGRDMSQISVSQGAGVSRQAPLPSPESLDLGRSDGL
UniProt P17050: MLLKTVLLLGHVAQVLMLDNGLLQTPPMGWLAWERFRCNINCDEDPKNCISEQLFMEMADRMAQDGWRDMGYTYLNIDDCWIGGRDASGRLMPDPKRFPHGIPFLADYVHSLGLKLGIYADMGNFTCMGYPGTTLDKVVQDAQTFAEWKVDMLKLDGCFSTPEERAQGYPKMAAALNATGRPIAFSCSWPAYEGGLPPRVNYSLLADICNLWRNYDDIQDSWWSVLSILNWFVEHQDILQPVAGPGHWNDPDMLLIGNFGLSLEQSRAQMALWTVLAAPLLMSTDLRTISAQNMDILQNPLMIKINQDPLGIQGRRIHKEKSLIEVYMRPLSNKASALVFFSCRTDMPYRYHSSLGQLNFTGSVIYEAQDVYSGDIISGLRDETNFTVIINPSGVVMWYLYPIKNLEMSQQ
UniProt Q9NPJ8: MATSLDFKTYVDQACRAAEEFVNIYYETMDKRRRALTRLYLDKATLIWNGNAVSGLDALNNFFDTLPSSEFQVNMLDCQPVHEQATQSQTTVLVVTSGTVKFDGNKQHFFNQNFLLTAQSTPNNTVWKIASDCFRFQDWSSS
UniProt P19838: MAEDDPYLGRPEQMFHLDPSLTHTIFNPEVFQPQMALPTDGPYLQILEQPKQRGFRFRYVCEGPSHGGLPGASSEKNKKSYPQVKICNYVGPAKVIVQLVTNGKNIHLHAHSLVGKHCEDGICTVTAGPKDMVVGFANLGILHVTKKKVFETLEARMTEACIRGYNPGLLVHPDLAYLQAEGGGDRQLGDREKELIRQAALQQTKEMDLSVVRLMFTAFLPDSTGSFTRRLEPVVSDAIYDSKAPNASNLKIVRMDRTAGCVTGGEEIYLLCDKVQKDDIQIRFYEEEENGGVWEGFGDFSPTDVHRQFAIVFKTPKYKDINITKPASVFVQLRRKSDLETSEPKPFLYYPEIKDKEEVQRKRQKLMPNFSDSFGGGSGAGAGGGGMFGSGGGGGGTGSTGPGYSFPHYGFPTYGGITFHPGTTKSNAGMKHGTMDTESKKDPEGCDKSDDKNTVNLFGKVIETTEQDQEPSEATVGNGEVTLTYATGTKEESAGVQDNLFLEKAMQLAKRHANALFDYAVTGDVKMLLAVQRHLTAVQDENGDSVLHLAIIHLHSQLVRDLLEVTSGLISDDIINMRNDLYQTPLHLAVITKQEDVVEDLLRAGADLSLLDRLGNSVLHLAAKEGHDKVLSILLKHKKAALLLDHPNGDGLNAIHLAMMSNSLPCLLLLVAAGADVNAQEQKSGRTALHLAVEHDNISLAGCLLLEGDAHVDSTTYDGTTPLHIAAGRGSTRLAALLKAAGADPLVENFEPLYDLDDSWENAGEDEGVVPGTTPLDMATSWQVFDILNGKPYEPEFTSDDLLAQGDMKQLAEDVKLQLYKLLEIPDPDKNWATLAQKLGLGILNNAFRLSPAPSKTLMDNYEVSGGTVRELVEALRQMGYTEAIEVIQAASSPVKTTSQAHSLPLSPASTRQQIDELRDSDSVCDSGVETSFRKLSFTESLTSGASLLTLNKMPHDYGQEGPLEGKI
UniProt O43674, whole entry: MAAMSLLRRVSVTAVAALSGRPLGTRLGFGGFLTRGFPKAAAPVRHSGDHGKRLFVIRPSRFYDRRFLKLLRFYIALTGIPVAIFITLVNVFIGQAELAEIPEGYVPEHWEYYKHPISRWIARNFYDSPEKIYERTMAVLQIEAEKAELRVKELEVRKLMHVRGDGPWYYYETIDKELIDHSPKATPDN
UniProt Q15003, whole entry: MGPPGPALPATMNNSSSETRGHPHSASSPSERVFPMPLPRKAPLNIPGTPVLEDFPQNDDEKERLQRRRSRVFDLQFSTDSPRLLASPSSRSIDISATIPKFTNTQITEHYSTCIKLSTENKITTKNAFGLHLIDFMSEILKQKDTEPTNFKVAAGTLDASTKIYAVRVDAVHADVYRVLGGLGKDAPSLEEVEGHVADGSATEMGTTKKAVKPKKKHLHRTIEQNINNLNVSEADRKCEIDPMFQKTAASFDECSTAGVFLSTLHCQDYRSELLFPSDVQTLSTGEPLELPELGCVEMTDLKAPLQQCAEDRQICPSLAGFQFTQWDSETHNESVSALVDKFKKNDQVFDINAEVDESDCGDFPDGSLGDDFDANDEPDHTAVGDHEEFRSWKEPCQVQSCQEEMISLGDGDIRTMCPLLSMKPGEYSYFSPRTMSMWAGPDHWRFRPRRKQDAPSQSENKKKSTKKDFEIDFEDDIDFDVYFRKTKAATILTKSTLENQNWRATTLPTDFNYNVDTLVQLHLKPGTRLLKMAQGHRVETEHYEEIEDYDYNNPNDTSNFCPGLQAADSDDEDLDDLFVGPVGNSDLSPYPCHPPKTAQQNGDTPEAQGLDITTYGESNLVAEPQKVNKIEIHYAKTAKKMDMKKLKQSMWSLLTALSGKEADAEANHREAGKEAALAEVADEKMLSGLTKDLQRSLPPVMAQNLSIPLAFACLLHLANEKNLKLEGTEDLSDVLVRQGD
UniProt P30414: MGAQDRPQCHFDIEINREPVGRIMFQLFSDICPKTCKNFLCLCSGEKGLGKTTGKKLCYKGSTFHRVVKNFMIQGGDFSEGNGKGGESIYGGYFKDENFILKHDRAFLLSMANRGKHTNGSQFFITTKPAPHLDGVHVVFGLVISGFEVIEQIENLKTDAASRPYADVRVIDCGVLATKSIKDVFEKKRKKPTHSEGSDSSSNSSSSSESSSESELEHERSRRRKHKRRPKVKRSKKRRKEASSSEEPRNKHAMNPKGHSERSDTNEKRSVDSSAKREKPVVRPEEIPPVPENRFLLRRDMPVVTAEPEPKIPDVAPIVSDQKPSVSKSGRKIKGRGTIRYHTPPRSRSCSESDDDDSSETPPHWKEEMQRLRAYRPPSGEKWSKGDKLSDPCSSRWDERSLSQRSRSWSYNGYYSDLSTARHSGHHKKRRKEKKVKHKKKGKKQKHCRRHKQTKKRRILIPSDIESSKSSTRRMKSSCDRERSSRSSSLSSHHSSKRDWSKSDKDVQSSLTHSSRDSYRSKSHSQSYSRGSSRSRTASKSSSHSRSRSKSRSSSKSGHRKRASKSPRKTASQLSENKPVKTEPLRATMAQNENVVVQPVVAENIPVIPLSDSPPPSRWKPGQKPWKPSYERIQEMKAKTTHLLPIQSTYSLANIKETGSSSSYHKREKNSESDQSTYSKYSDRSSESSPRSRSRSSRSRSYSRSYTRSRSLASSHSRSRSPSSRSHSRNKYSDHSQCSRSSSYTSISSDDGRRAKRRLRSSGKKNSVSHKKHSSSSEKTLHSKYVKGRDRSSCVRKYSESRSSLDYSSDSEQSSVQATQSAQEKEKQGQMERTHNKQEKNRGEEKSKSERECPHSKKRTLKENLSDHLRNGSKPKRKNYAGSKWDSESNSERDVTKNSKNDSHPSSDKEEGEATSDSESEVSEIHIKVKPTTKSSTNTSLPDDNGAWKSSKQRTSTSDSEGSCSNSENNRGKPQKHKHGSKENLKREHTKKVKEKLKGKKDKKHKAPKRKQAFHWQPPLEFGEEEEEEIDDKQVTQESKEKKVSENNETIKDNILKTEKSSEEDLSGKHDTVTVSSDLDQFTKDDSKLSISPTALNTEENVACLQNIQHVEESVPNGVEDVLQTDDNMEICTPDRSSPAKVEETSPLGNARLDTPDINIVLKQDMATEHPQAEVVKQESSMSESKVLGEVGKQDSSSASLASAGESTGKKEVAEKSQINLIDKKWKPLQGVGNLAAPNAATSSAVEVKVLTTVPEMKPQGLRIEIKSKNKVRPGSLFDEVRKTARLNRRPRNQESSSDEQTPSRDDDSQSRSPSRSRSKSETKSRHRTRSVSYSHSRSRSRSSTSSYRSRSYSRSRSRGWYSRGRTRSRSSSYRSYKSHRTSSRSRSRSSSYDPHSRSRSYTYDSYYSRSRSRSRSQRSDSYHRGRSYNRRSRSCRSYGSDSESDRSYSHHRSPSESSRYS
UniProt Q9Y697: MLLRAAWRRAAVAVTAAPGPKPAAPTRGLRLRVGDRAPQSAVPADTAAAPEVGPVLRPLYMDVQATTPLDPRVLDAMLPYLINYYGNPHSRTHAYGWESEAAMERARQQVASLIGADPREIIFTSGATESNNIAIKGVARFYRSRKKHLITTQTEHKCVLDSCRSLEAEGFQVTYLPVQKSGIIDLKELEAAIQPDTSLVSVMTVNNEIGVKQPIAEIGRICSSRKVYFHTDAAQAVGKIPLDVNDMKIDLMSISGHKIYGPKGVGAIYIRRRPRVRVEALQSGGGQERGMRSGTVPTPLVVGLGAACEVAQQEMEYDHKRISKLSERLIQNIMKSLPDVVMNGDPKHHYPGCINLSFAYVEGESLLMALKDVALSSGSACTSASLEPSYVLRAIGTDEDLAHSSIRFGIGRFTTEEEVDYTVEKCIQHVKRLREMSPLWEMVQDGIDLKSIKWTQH
UniProt Q9Y221: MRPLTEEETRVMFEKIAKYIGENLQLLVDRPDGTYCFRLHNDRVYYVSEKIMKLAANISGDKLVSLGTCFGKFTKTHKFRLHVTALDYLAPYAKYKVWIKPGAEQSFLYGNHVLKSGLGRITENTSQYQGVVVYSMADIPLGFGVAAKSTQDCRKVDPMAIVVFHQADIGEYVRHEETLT
UniProt O43639, whole entry: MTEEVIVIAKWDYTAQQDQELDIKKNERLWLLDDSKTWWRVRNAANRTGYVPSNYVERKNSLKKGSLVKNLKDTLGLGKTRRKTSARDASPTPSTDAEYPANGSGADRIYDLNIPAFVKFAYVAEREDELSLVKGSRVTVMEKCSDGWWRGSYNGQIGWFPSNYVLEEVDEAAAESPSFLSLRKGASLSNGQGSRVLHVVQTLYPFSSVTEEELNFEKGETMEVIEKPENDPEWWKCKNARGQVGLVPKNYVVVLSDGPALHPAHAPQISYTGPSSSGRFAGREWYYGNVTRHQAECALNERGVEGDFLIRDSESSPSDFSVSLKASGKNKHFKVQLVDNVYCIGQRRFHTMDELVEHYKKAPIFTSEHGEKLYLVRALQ

compound: COc1ccc(Cn2ccc3cc(C)c(C(=O)NO)cc32)cc1; assay: dose-dependent thermal stabilisation call (2D-TPP, DLPTP, 10% FDR) (binary (1 = stabilised)); higher = stabilised by the compound; conditions: system: HL-60 intact cells; concentration range 0.04-10 µM
Experimental: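 2D thermal proteome profiling in intact HL-60 cells treated with BRD-3811 (0, 0.04, 0.29, 2, 10 uM) for 90 min at 37 C, then heated 3 min at one of 12 temperatures (42-63.9 C). Soluble protein was quantified by TMT10 MS. The value is the DLPTP call of the paper: dose-dependent thermal stabilisation over all temperatures at 10% FDR (F-test of a dose-response against a flat model); one experiment, one call per tested protein.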

Target	dose-dependent thermal stabilisation call
NSMCE4A (UniProt Q9NXX6)	inactive: 0
NOB1 (UniProt Q9ULX3)	inactive: 0
NOP16 (UniProt Q9Y3C1)	inactive: 0
NUPL1 (UniProt Q9BVL2)	inactive: 0
NAT13 (UniProt Q9GZZ1)	inactive: 0
NDUFA6 (UniProt P56556)	inactive: 0
NGRN (UniProt Q9NPE2)	inactive: 0
NOL9 (UniProt Q5SY16)	inactive: 0
NOP5/NOP58	inactive: 0
NCLN (UniProt Q969V3)	inactive: 0
NFATC3 (UniProt Q12968)	inactive: 0
NAGA (UniProt P17050)	inactive: 0
NOP2 (UniProt P46087)	inactive: 0
NXT2 (UniProt Q9NPJ8)	inactive: 0
NSUN4 (UniProt Q96CB9)	inactive: 0
NFKB1 (UniProt P19838)	inactive: 0
NAT12 (UniProt Q147X3)	inactive: 0
NUDT18 (UniProt Q6ZVK8)	inactive: 0
NDUFB5 (UniProt O43674)	inactive: 0
NOP10 (UniProt Q9NPE3)	inactive: 0

Target	dose-dependent thermal stabilisation call
NCAPH (UniProt Q15003)	inactive: 0
NCAPG2 (UniProt Q86XI2)	inactive: 0
NCKIPSD (UniProt Q9NZQ3)	inactive: 0
NKTR (UniProt P30414)	inactive: 0
NFS1 (UniProt Q9Y697)	inactive: 0
NDUFC2 (UniProt O95298)	inactive: 0
NDUFS4 (UniProt O43181)	inactive: 0
NCOA7 (UniProt Q8NI08)	inactive: 0
NCAPD2 (UniProt Q15021)	inactive: 0
NCKAP1L (UniProt P55160)	inactive: 0
NIP7 (UniProt Q9Y221)	inactive: 0
NLRX1 (UniProt Q86UT6)	inactive: 0
NCOA5 (UniProt Q9HCD5)	inactive: 0
NCK2 (UniProt O43639)	inactive: 0
NSBP1 (UniProt P82970)	inactive: 0
NAT5	inactive: 0
NUP153 (UniProt P49790)	inactive: 0
NCOA6 (UniProt Q14686)	inactive: 0
NDUFAF1 (UniProt Q9Y375)	inactive: 0
NXF3 (UniProt Q9H4D5)	inactive: 0

Given with bars between the fields: entries from further up.
Target | dose-dependent thermal stabilisation call
NCKAP1L (UniProt P55160) | inactive: 0
NIP7 (UniProt Q9Y221) | inactive: 0
NLRX1 (UniProt Q86UT6) | inactive: 0
